No constants are given. Whether binding was seen depends on the method and setting. In cells and extracts the contact can be indirect. Some results given as binding are weak or reduced against the parent protein; the word gives no strength.

The chains behind the UniProt entries cited, without tags or fusion partners. Residues count along the entry.
UniProt P12830, residues 155-882: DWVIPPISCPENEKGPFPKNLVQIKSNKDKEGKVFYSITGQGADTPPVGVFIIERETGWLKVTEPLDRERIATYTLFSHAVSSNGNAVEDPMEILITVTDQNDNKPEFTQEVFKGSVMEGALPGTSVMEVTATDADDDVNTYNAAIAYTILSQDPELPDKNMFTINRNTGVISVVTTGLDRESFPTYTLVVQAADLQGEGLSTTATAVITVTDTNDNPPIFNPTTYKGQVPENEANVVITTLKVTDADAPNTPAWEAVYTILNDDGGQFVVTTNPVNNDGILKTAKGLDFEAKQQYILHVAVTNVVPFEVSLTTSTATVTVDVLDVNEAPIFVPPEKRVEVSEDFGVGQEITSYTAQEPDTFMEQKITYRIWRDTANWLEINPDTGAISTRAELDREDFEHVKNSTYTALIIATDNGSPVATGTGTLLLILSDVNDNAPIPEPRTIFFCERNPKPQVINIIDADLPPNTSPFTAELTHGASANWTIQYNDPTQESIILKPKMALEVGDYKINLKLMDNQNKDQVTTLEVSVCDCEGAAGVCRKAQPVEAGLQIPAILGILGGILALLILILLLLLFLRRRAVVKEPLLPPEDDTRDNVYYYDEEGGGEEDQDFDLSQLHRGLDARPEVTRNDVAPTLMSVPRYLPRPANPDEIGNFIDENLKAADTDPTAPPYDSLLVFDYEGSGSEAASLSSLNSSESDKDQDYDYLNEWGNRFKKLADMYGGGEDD
UniProt P46940, residues 2-1657: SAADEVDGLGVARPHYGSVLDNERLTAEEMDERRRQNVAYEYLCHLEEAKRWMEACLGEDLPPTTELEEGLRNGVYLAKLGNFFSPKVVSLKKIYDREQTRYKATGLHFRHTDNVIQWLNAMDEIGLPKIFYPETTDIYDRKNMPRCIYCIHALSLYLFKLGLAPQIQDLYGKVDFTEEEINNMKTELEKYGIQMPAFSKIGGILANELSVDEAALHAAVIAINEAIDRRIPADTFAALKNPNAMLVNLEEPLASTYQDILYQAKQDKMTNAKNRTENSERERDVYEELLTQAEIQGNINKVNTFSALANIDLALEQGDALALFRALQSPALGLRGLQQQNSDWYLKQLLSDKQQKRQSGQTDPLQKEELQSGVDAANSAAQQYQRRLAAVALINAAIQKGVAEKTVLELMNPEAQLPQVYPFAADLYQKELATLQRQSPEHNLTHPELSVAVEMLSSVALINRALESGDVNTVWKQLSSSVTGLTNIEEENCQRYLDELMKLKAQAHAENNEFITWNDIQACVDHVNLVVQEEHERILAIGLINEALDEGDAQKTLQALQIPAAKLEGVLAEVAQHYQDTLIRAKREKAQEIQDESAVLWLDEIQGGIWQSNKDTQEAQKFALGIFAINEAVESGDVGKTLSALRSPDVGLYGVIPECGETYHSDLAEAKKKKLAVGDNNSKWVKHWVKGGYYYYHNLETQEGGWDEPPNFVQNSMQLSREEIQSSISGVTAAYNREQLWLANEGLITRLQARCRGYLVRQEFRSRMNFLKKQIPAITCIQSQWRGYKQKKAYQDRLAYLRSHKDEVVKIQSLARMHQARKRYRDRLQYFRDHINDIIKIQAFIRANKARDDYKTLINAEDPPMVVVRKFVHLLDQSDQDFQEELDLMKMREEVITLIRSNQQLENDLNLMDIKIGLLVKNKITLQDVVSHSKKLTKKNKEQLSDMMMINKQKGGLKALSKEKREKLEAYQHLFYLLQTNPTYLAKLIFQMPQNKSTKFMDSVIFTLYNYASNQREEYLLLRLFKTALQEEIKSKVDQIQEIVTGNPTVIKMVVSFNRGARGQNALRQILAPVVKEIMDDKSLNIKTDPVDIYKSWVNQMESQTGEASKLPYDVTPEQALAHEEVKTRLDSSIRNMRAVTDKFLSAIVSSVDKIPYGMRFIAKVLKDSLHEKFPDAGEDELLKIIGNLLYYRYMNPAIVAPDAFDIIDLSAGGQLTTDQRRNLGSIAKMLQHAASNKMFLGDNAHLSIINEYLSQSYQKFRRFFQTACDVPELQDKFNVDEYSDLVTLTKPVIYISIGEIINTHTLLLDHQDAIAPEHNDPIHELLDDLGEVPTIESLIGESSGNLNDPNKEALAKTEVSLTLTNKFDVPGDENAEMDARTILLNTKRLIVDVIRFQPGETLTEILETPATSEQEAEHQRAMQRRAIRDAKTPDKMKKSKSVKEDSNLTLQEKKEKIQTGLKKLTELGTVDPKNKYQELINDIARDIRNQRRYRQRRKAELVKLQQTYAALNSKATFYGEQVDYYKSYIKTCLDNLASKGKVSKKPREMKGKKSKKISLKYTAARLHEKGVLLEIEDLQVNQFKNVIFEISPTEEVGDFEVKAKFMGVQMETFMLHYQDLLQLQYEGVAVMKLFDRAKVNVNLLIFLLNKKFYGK

These results are taken from patent publication US20130315930A1.

The assay has as its target E-cadherin (human (endogenous in human SW1736 cells)) (UniProt P12830). The experiment in a line: co-immunoprecipitation from SW1736 cell lysates with anti-IQGAP1 antibody, Western blotting. On the technique in general: A western blot detects proteins with antibodies after separation by electrophoresis.

In the case of “IQGAP1 (IQ motif containing GTPase activating protein 1) (from UniProt P46940 2-1657)”, the binding entry is given as “binds”.
